Assay results reported in publication PMC4288368.
Results are given in words; binding and its absence hold for the method and conditions named. In cells and extracts the contact can be indirect. A yes stands for co-enrichment or nearness to the bait. Other partners may have been found.

Sequences of proteins named here, by UniProt entry; tags and fusion partners are left off.
UniProt O95377: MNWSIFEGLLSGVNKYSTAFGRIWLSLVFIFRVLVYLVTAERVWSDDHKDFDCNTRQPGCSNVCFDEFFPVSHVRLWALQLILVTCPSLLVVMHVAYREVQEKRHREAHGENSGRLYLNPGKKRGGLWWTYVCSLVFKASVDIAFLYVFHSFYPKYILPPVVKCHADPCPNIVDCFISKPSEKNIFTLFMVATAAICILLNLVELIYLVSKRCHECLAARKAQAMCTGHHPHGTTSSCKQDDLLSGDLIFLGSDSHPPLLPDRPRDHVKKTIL
UniProt Q00610: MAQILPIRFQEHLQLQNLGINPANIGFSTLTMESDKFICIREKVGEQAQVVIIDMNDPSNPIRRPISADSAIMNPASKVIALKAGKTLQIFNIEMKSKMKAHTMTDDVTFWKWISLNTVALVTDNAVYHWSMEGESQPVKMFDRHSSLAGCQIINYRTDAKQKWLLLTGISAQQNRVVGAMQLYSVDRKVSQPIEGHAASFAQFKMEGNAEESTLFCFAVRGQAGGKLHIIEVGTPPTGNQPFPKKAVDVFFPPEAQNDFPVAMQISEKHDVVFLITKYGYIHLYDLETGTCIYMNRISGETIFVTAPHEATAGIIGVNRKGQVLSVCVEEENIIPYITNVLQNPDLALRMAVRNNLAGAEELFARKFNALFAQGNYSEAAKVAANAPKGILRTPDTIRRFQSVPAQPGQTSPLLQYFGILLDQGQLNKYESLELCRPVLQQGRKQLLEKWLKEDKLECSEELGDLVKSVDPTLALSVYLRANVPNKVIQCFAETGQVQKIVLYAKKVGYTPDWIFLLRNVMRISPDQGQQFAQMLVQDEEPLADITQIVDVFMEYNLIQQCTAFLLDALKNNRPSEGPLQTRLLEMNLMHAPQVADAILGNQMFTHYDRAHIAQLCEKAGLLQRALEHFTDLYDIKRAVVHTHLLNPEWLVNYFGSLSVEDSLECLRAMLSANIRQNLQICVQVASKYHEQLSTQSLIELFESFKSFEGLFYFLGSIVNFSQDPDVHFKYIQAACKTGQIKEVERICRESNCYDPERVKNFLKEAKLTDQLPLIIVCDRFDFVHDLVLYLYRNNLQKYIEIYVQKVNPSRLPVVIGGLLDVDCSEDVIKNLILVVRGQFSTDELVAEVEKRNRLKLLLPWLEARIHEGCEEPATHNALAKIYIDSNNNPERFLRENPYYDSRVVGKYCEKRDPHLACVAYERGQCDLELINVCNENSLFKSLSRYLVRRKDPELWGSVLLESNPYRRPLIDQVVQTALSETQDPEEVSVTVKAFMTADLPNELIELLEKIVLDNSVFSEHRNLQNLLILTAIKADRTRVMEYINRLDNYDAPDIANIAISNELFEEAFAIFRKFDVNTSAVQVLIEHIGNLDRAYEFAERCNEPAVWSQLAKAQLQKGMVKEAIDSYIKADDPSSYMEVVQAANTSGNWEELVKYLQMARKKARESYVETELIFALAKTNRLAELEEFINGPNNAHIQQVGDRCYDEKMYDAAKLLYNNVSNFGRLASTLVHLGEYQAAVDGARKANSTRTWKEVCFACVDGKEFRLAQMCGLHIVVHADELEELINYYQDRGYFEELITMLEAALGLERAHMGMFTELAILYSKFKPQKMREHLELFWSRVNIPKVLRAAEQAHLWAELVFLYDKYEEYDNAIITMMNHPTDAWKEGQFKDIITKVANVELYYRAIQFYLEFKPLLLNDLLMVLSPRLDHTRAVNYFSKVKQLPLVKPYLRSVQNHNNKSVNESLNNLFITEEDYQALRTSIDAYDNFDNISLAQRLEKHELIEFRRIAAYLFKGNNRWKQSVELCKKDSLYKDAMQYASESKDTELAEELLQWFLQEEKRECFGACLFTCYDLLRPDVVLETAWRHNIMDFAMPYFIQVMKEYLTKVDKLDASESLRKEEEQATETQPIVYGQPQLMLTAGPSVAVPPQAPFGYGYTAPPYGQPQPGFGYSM

Molecular target: Connexin 31.1-EGFP (UniProt O95377)
Assay: affinity purification with mass spectrometry; lysates of Cx31.1-EGFP-H1299 cells (control: H1299 cells stably expressing EGFP) immunoprecipitated with polyclonal anti-GFP and protein A/G PLUS-Agarose; buffer 50 mM Tris-HCl pH 7.4, 150 mM NaCl, 1% NP-40, 0.25% sodium deoxycholate, 1 mM EDTA; 4°C; SDS-PAGE, silver stain, bands absent from the control excised, HPLC-MS/MS; repeated three times

binding: binds
Substance: clathrin heavy chain (from UniProt Q00610 1-1675)
